Results are given in words; binding and its absence hold for the method and conditions named. In cells and extracts the contact can be indirect. Some binding calls cover weakened binding; strength is not graded here.
How the values were obtained:
[1] = molecular target: p53 (endogenous, HBE cells) (human (endogenous in HBE)) (UniProt P04637); experiment: co-IP; endogenous proteins in HBE lysate; precipitated with anti-p53, anti-BMAL1 or anti-IgG antibody and protein A/G magnetic beads at 4 °C; blots with anti-p53 or anti-BMAL1
[2] = molecular target: Flag-p53 (pcDNA3.1-p53-Flag) (UniProt P04637); experiment: co-IP; HEK293T cotransfected with Flag-p53 and HA-BMAL1 for 72 h; lysate precipitated with anti-Flag, anti-HA or anti-IgG antibody and protein A/G magnetic beads at 4 °C; blots with anti-HA or anti-Flag

Chains of the proteins cited; added tags and fusions are not shown.
UniProt O00327: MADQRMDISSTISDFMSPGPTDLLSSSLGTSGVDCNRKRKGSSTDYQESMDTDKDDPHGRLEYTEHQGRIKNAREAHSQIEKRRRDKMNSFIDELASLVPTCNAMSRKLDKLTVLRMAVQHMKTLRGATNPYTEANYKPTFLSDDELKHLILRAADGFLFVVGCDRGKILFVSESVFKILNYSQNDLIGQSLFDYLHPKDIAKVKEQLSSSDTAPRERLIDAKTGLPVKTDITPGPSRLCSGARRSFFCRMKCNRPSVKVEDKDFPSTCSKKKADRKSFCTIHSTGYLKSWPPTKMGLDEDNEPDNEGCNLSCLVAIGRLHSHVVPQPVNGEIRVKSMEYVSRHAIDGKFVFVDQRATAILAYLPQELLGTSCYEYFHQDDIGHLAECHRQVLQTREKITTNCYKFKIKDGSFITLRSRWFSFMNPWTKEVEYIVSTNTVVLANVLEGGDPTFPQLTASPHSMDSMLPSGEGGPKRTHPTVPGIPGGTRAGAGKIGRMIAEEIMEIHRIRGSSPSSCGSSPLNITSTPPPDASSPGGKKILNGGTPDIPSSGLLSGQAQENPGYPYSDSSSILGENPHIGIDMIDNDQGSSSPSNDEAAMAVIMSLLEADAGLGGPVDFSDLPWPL

Row | binding [1] | binding [2] | Substance
1 | binds |  | BMAL1 (endogenous, HBE cells) (from UniProt O00327 1-626)
2 |  | binds | HA-BMAL1 (pcDNA3.1-BMAL1-HA) (from UniProt O00327 1-626)

— article PMC9940367
